# Source: the supplement of paper PMC8728848
# This is one part of the list.
# B1: EULS2 M3 (Oryza sativa) (protein)
# chain: MVYCRANPNYAMTARNGAVVLAPANPKDEYQHWIKDMRWSTSIKDEEGYPAFALVNKATGQAIKHSLGQSHPVRLVPYNPEVMDESVLWTESRDVGNGFRCIRMVNNIYLNFDAFHGDKYHGGVRDGTDIVLWKLCEGDSLRWKIQPYYILEQKLISEEDLNSAVDHHHHHH
# Columns and labels:
# Experiment in all cases: glycan array binding signal (z-score within array); higher = stronger binding
# Details in all cases: glycan notation: IUPAC condensed, linker removed
# [1] = target: GalNAc(b1-4)GlcNAc(b1-2)Man
# Method in brief: (§1)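 Glycan array binding is given as a within-array Z-score, which can be read as non-binding when negative. The arrays, 3228 of them, came from the Consortium for Functional Glycomics database and were retained only where the protein sequence was available. Z-scores were averaged across arrays of the same protein sequence at different concentrations or buffers and across linkers.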
# [2] = target: GalNAc(b1-4)GlcNAc(b1-2)Man(a1-3)[GalNAc(b1-4)GlcNAc(b1-2)Man(a1-6)]Man(b1-4)GlcNAc(b1-4)GlcNAc
# Method in brief: as §1
# [3] = target: GalNAc(b1-4)GlcNAc(b1-3)GalNAc(b1-4)GlcNAc
# Method in brief: as §1
# [4] = target: GalNAc(b1-4)GlcNAc6S
# Method in brief: as §1
# [5] = target: GalNAc(b1-6)GalNAc
# Method in brief: as §1
# [6] = target: GalNAc3S(b1-4)GlcNAc
# Method in brief: as §1
# [7] = target: GalNAc3S(b1-4)GlcNAc3S
# Method in brief: as §1
# [8] = target: GalNAc3S(b1-4)[Fuc(a1-3)]GlcNAc
# Method in brief: as §1
# [9] = target: GalNAc4S6S(b1-4)GlcNAc
# Method in brief: as §1
# [10] = target: GalNAc6S(b1-4)GlcNAc
# Method in brief: as §1
# [11] = target: Glc(a1-4)Glc
# Method in brief: as §1
# [12] = target: Glc(a1-4)Glc(a1-4)Glc(a1-4)Glc
# Method in brief: as §1
# [13] = target: Glc(a1-6)Glc(a1-6)Glc
# Method in brief: as §1
# [14] = target: Glc(a1-6)Glc(a1-6)Glc(a1-6)Glc
# Method in brief: as §1
# [15] = target: Glc(b1-4)Glc
# Method in brief: as §1
# [16] = target: Glc(b1-6)Glc
# Method in brief: as §1
# [17] = target: GlcA(b1-3)Gal
# Method in brief: as §1
# [18] = target: GlcA(b1-3)GlcNAc
# Method in brief: as §1
# [19] = target: GlcA(b1-6)Gal
# Method in brief: as §1
# [20] = target: GlcA3S(b1-3)Gal(b1-4)GlcNAc(b1-2)Man
# Method in brief: as §1
# [21] = target: GlcA3S(b1-3)Gal(b1-4)GlcNAc(b1-3)Gal(b1-4)Glc
# Method in brief: as §1
# [22] = target: GlcNAc(a1-3)Gal(b1-4)GlcNAc
# Method in brief: as §1
# [23] = target: GlcNAc(a1-4)Gal(b1-3)GlcNAc
# Method in brief: as §1
# [24] = target: GlcNAc(a1-4)Gal(b1-4)GalNAc
# Method in brief: as §1
# [25] = target: GlcNAc(a1-4)Gal(b1-4)GlcNAc
# Method in brief: as §1
# [26] = target: GlcNAc(a1-4)Gal(b1-4)GlcNAc(b1-3)Gal(b1-4)Glc
# Method in brief: as §1
# [27] = target: GlcNAc(a1-4)Gal(b1-4)GlcNAc(b1-3)Gal(b1-4)GlcNAc
# Method in brief: as §1
# [28] = target: GlcNAc(a1-4)Gal(b1-4)GlcNAc(b1-3)Gal(b1-4)GlcNAc(b1-3)Gal(b1-4)GlcNAc
# Method in brief: as §1
# [29] = target: GlcNAc(a1-4)Gal(b1-4)GlcNAc(b1-3)Gal(b1-4)[Fuc(a1-3)]GlcNAc(b1-3)Gal(b1-4)[Fuc(a1-3)]GlcNAc
# Method in brief: as §1
# [30] = target: GlcNAc(a1-6)Gal(b1-4)GlcNAc
# Method in brief: as §1
# [31] = target: GlcNAc(b1-2)Gal(b1-3)GalNAc
# Method in brief: as §1
# [32] = target: GlcNAc(b1-2)Man(a1-3)[GlcNAc(b1-2)Man(a1-6)]Man(b1-4)GlcNAc(b1-4)GlcNAc
# Method in brief: as §1
# [33] = target: GlcNAc(b1-2)Man(a1-3)[GlcNAc(b1-2)Man(a1-6)]Man(b1-4)GlcNAc(b1-4)[Fuc(a1-6)]GlcNAc
# Method in brief: as §1
# [34] = target: GlcNAc(b1-2)Man(a1-3)[GlcNAc(b1-4)][GlcNAc(b1-2)Man(a1-6)]Man(b1-4)GlcNAc(b1-4)GlcNAc
# Method in brief: as §1
# [35] = target: GlcNAc(b1-2)Man(a1-3)[GlcNAc(b1-4)][GlcNAc(b1-2)Man(a1-6)]Man(b1-4)GlcNAc(b1-4)[Fuc(a1-6)]GlcNAc
# Method in brief: as §1
# [36] = target: GlcNAc(b1-2)[GlcNAc(b1-4)]Man(a1-3)[GlcNAc(b1-2)Man(a1-6)]Man(b1-4)GlcNAc(b1-4)GlcNAc
# Method in brief: as §1
# [37] = target: GlcNAc(b1-2)[GlcNAc(b1-4)]Man(a1-3)[GlcNAc(b1-4)][GlcNAc(b1-2)Man(a1-6)]Man(b1-4)GlcNAc(b1-4)GlcNAc
# Method in brief: as §1
# [38] = target: GlcNAc(b1-2)[GlcNAc(b1-4)]Man(a1-3)[GlcNAc(b1-4)][GlcNAc(b1-2)[GlcNAc(b1-6)]Man(a1-6)]Man(b1-4)GlcNAc(b1-4)GlcNAc
# Method in brief: as §1
# [39] = target: GlcNAc(b1-2)[GlcNAc(b1-4)]Man(a1-3)[GlcNAc(b1-4)][GlcNAc(b1-2)[GlcNAc(b1-6)]Man(a1-6)]Man(b1-4)GlcNAc(b1-4)[Fuc(a1-6)]GlcNAc
# Method in brief: as §1
# [40] = target: GlcNAc(b1-2)[GlcNAc(b1-6)]Man(a1-6)[GlcNAc(b1-2)Man(a1-3)]Man(b1-4)GlcNAc(b1-4)GlcNAc
# Method in brief: as §1
# [41] = target: GlcNAc(b1-2)[GlcNAc(b1-6)]Man(a1-6)[GlcNAc(b1-2)Man(a1-3)]Man(b1-4)GlcNAc(b1-4)[Fuc(a1-6)]GlcNAc
# Method in brief: as §1
# [42] = target: GlcNAc(b1-2)[GlcNAc(b1-6)]Man(a1-6)[GlcNAc(b1-4)][GlcNAc(b1-2)Man(a1-3)]Man(b1-4)GlcNAc(b1-4)GlcNAc
# Method in brief: as §1
# [43] = target: GlcNAc(b1-3)Fuc
# Method in brief: as §1
# [44] = target: GlcNAc(b1-3)Gal
# Method in brief: as §1
# [45] = target: GlcNAc(b1-3)Gal(b1-3)GalNAc
# Method in brief: as §1
binder,measurement,setting,value
B1,glycan array binding signal (z-score),[1],-0.272
same,glycan array binding signal (z-score),[2],1.09
same,glycan array binding signal (z-score),[3],0.295
same,glycan array binding signal (z-score),[4],-0.368
same,glycan array binding signal (z-score),[5],-0.069
same,glycan array binding signal (z-score),[6],-0.239
same,glycan array binding signal (z-score),[7],0.531
same,glycan array binding signal (z-score),[8],-0.623
same,glycan array binding signal (z-score),[9],0.056
same,glycan array binding signal (z-score),[10],-0.433
same,glycan array binding signal (z-score),[11],0.668
same,glycan array binding signal (z-score),[12],0.061
same,glycan array binding signal (z-score),[13],-0.684
same,glycan array binding signal (z-score),[14],1.67
same,glycan array binding signal (z-score),[15],0.01
same,glycan array binding signal (z-score),[16],0.98
same,glycan array binding signal (z-score),[17],-0.351
same,glycan array binding signal (z-score),[18],0.754
same,glycan array binding signal (z-score),[19],-0.196
same,glycan array binding signal (z-score),[20],-0.34
same,glycan array binding signal (z-score),[21],-0.299
same,glycan array binding signal (z-score),[22],-0.405
same,glycan array binding signal (z-score),[23],-0.205
same,glycan array binding signal (z-score),[24],-0.436
same,glycan array binding signal (z-score),[25],-0.386
same,glycan array binding signal (z-score),[26],0.298
same,glycan array binding signal (z-score),[27],-0.177
same,glycan array binding signal (z-score),[28],-0.139
same,glycan array binding signal (z-score),[29],-0.574
same,glycan array binding signal (z-score),[30],0.062
same,glycan array binding signal (z-score),[31],0
same,glycan array binding signal (z-score),[32],-0.688
same,glycan array binding signal (z-score),[33],-0.546
same,glycan array binding signal (z-score),[34],-0.465
same,glycan array binding signal (z-score),[35],-0.359
same,glycan array binding signal (z-score),[36],-0.165
same,glycan array binding signal (z-score),[37],-0.58
same,glycan array binding signal (z-score),[38],-0.387
same,glycan array binding signal (z-score),[39],-0.223
same,glycan array binding signal (z-score),[40],-1.08
same,glycan array binding signal (z-score),[41],-0.281
same,glycan array binding signal (z-score),[42],0.427
same,glycan array binding signal (z-score),[43],-0.679
same,glycan array binding signal (z-score),[44],0.402
same,glycan array binding signal (z-score),[45],-0.321
